# Experimental data as given in doi:10.1101/605378.
# Protein sequences, listed by entry. Tags and fused reporters are not part of them.
# UniProt Q9R0K7: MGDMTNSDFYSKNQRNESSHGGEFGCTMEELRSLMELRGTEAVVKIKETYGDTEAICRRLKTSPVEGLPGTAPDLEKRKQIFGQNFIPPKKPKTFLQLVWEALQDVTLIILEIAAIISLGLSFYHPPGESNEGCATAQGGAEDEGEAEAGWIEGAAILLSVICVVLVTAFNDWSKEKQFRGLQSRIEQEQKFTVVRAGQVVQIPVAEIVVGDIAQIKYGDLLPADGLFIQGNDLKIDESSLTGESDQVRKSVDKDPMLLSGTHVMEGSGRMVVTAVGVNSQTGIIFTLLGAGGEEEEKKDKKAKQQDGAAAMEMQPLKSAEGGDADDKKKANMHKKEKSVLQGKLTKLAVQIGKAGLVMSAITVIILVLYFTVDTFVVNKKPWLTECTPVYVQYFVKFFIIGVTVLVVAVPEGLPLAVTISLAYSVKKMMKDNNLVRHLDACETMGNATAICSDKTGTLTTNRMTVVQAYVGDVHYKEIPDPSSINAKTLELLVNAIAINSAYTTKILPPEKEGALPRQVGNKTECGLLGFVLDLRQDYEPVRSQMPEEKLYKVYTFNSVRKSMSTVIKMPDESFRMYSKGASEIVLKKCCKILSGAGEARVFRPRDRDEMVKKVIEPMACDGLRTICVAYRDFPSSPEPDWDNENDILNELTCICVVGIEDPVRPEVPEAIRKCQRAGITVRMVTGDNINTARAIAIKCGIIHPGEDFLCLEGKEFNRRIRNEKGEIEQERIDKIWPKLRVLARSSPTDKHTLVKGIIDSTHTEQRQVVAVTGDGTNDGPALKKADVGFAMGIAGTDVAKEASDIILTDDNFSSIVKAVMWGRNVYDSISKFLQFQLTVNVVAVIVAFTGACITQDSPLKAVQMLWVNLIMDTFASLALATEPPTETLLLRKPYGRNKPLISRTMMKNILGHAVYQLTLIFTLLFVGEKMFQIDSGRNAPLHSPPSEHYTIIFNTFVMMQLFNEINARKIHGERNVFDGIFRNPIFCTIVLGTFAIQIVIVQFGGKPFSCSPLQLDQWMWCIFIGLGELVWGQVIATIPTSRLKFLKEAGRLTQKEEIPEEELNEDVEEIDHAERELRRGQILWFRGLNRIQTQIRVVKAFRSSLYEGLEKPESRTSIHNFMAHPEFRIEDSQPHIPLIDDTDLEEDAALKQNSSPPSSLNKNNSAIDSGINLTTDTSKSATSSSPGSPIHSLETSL
# UniProt Q0VF55: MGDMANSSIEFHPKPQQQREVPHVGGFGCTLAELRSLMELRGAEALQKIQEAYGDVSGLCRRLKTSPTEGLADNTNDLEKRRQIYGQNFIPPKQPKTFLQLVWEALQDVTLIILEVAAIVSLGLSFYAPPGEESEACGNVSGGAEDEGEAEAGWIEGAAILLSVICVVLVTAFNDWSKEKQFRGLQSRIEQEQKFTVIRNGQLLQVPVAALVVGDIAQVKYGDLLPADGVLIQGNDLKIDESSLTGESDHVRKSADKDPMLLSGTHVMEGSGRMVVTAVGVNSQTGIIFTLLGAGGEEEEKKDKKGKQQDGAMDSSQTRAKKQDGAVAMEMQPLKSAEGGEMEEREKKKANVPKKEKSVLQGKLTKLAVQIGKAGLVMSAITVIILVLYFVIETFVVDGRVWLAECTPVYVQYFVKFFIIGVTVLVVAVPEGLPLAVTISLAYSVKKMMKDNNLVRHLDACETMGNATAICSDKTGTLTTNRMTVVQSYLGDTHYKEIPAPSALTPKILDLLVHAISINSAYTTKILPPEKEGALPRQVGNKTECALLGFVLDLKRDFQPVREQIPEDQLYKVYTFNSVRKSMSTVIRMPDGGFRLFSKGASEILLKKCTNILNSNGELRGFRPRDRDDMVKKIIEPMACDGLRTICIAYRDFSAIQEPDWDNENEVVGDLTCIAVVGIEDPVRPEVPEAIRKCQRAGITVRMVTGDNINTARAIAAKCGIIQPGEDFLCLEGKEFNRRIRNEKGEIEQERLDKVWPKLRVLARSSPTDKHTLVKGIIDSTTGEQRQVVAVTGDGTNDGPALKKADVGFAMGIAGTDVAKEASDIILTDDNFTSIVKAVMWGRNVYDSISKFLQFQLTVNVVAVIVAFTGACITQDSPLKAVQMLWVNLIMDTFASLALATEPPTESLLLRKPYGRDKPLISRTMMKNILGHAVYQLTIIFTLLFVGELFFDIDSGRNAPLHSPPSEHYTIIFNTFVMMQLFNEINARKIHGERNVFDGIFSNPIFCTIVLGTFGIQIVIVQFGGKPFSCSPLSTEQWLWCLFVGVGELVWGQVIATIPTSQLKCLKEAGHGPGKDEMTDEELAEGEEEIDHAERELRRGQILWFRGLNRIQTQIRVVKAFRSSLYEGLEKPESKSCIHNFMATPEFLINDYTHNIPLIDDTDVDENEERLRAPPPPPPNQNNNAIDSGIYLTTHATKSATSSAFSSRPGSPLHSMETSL
# UniProt Q6Q477: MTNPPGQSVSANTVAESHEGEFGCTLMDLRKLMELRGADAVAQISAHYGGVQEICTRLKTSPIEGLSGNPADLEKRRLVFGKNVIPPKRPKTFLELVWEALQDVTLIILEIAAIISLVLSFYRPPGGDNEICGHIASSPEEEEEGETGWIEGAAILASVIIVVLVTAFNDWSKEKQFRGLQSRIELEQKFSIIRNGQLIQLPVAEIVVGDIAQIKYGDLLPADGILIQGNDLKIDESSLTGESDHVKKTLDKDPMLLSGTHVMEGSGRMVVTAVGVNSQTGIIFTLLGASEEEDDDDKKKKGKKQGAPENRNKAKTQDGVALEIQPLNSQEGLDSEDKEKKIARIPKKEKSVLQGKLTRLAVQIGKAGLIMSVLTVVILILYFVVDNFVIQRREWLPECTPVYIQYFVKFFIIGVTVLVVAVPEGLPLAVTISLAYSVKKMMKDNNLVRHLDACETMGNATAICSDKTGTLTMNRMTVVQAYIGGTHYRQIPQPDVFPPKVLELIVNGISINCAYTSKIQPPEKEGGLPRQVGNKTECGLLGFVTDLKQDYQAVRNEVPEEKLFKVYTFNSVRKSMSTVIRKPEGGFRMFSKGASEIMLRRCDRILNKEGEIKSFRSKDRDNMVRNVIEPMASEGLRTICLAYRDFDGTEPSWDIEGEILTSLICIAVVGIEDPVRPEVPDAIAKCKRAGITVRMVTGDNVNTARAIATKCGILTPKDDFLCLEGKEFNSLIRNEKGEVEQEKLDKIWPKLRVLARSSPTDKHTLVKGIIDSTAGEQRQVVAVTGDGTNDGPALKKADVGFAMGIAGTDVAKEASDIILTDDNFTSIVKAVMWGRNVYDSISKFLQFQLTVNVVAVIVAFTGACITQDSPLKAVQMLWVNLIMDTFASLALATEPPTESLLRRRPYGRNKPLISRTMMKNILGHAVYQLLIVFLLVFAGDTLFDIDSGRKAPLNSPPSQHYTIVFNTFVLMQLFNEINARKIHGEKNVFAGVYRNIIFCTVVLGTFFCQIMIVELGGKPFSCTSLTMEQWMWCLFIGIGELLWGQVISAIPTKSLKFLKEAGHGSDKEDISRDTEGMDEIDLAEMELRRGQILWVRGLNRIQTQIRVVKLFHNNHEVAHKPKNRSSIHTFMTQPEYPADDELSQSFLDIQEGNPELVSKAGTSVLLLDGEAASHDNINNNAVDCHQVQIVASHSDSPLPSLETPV
# UniProt G5E829: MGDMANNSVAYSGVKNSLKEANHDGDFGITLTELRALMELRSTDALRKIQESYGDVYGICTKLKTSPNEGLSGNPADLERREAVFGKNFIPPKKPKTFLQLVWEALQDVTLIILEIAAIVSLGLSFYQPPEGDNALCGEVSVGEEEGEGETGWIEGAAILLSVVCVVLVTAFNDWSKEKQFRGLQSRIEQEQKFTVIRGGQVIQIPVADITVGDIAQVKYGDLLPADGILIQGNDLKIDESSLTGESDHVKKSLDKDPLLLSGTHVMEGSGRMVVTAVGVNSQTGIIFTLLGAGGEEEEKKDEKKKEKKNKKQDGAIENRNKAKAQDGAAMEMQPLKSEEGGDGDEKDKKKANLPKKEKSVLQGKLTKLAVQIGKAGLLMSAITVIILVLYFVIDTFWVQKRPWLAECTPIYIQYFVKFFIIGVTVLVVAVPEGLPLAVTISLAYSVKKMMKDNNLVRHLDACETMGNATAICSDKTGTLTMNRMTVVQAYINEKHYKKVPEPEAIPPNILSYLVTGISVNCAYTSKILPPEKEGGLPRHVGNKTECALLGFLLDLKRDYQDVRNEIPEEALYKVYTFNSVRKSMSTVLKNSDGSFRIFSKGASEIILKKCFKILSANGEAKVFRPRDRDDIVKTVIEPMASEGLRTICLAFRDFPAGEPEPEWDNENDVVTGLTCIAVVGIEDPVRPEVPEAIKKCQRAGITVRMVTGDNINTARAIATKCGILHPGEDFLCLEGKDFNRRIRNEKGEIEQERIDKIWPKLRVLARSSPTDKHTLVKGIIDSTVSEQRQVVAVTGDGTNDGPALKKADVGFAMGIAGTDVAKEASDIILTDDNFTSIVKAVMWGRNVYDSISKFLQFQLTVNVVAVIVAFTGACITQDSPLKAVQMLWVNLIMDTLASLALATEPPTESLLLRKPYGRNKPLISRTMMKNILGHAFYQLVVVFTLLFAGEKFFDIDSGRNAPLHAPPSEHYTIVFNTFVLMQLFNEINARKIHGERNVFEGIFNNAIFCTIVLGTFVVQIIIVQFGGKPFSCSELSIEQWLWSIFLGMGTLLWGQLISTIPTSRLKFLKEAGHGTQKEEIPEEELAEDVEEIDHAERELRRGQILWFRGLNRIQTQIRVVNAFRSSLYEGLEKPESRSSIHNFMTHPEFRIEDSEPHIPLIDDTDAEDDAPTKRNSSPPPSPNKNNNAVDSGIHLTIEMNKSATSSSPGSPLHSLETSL
# These are yes or no findings as the source states them, for the method shown. Binding seen in cells or lysates may run through a third protein. Here binding means that the protein was enriched with, or labelled near, the bait; the list need not be complete. Where a sequence is shown, tags or fusion partners need not be part of it.
# T1: Flag-CNTNAP2-ecto (ectodomain of CNTNAP2) (human) (UniProt Q9UHC6)
# T1 sequence: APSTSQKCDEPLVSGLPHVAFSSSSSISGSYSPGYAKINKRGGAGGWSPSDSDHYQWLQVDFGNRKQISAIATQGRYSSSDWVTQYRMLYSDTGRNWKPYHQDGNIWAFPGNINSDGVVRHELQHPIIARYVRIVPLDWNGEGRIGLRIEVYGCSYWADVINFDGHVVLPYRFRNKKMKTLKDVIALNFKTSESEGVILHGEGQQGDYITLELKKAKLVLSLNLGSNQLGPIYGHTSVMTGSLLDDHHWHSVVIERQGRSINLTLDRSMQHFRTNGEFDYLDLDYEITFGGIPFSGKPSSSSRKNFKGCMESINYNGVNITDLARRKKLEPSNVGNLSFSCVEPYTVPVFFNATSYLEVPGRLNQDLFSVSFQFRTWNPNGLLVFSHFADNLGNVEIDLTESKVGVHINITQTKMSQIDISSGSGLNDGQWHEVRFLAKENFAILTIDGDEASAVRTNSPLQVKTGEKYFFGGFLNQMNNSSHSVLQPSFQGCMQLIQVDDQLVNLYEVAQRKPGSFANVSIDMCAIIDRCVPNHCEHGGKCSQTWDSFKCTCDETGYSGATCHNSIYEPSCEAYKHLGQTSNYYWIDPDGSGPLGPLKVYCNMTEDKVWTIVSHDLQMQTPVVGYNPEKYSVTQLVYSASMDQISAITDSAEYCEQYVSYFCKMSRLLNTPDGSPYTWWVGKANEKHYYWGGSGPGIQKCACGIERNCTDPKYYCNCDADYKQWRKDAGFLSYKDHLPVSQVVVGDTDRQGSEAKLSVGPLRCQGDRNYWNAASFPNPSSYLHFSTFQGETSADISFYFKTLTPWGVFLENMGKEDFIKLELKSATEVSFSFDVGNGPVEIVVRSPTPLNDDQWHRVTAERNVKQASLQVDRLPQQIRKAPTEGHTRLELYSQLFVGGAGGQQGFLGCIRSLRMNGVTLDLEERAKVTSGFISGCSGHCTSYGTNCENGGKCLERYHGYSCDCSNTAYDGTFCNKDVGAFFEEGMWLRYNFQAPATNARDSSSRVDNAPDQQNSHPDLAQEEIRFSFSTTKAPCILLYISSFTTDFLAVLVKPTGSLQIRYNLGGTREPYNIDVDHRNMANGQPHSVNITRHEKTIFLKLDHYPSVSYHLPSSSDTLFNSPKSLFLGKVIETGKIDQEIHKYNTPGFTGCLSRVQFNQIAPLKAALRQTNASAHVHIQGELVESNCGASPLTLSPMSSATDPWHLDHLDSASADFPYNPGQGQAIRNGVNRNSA
# Molecular target: T1, Flag-CNTNAP2-ecto (ectodomain of CNTNAP2) (human)
# Experiment: affinity purification with mass spectrometry
row,Molecule,binding
1,PMCA2 (mouse cortical membranes) (from UniProt Q9R0K7 1-1198),binds
2,"PMCA3 (one of ""all four members of the PMCA/ATP2B family"") (from UniProt Q0VF55 1-1220)",binds
3,"PMCA4 (one of ""all four members of the PMCA/ATP2B family"") (from UniProt Q6Q477 1-1205)",binds

# Now from value to molecule:
row,binding,Molecule
1,binds,"PMCA1 (one of ""all four members of the PMCA/ATP2B family"") (from UniProt G5E829 1-1220)"
2,binds,"contactin-1 (protein, UniProt P12960 21-1001) DFTWHRRYGHGVSEEDKGFGPIFEEQPINTIYPEESLEGKVSLNCRARASPFPVYKWRMNNGDVDLTNDRYSMVGGNLVINNPDKQKDAGVYYCLASNNYGMVRSTEATLSFGYLDPFPPEERPEVKVKEGKGMVLLCDPPYHFPDDLSYRWLLNEFPVFITMDKRRFVSQTNGNLYIANVESSDRGNYSCFVSSPSITKSVFSKFIPLIPIPERTTKPYPADIVVQFKDIYTMMGQNVTLECFALGNPVPDIRWRKVLEPMPSTAEISTSGAVLKIFNIQLEDEGLYECEAENIRGKDKHQARIYVQAFPEWVEHINDTEVDIGSDLYWPCIATGKPIPTIRWLKNGYSYHKGELRLYDVTFENAGMYQCIAENAYGSIYANAELKILALAPTFEMNPMKKKILAAKGGRVIIECKPKAAPKPKFSWSKGTEWLVNSSRILIWEDGSLEINNITRNDGGIYTCFAENNRGKANSTGTLVITNPTRIILAPINADITVGENATMQCAASFDPALDLTFVWSFNGYVIDFNKEITHIHYQRNFMLDANGELLIRNAQLKHAGRYTCTAQTIVDNSSASADLVVRGPPGPPGGLRIEDIRATSVALTWSRGSDNHSPISKYTIQTKTILSDDWKDAKTDPPIIEGNMESAKAVDLIPWMEYEFRVVATNTLGTGEPSIPSNRIKTDGAAPNVAPSDVGGGGGTNRELTITWAPLSREYHYGNNFGYIVAFKPFDGEEWKKVTVTNPDTGRYVHKDETMTPSTAFQVKVKAFNNKGDGPYSLVAVINSAQDAPSEAPTEVGVKVLSSSEISVHWKHVLEKIVESYQIRYWAGHDKEAAAHRVQVTSQEYSARLENLLPDTQYFIEVGACNSAGCGPSSDVIETFTRKAPPSQPPRIISSVRSGSRYIITWDHVVALSNESTVTGYKILYRPDGQHDGKLFSTHKHSIEVPIPRDGEYVVEVRAHSDGGDGVVSQVKISGVSTLS"
